Data taken from the supplement of paper PMC10849652.
This is one part of the list. Residues, ends and D or L forms follow the SMILES beside them. *: point of attachment. Cbz = O=C(OCc1ccccc1)*

Amino acid sequences for entries named in this document (tags omitted). A change or cut given only in a name is not applied to a line headed by its entry.
UniProt Q7L1T6: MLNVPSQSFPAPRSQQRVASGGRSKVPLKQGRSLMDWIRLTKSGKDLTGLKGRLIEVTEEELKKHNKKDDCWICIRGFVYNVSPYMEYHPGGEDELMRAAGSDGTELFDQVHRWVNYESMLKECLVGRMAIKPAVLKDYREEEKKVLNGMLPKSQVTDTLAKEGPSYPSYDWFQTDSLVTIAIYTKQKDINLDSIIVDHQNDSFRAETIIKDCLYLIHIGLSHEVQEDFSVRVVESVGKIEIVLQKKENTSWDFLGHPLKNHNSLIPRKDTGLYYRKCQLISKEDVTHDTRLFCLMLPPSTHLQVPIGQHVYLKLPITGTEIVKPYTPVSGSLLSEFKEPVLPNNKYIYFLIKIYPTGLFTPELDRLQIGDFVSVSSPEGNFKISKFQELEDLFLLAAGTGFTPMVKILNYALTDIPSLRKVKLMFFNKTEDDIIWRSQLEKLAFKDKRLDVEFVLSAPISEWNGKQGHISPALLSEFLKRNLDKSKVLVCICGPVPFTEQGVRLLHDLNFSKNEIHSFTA
UniProt Q13948: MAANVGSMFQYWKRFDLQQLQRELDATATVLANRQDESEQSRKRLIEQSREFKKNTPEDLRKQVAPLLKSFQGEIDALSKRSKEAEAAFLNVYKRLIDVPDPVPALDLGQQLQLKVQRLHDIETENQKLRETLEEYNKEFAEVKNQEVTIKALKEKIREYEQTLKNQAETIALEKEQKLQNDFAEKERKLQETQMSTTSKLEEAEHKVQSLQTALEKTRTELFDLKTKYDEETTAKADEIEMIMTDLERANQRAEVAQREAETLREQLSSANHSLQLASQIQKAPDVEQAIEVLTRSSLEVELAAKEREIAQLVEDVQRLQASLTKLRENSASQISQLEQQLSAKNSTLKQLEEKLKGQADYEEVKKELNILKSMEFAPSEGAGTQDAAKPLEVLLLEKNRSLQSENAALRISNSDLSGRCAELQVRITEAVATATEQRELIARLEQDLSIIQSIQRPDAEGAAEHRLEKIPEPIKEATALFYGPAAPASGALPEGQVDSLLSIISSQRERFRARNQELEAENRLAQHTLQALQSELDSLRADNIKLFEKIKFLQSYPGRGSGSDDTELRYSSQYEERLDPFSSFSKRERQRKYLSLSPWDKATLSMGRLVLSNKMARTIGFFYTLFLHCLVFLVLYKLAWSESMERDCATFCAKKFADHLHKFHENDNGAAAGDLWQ
UniProt P39880: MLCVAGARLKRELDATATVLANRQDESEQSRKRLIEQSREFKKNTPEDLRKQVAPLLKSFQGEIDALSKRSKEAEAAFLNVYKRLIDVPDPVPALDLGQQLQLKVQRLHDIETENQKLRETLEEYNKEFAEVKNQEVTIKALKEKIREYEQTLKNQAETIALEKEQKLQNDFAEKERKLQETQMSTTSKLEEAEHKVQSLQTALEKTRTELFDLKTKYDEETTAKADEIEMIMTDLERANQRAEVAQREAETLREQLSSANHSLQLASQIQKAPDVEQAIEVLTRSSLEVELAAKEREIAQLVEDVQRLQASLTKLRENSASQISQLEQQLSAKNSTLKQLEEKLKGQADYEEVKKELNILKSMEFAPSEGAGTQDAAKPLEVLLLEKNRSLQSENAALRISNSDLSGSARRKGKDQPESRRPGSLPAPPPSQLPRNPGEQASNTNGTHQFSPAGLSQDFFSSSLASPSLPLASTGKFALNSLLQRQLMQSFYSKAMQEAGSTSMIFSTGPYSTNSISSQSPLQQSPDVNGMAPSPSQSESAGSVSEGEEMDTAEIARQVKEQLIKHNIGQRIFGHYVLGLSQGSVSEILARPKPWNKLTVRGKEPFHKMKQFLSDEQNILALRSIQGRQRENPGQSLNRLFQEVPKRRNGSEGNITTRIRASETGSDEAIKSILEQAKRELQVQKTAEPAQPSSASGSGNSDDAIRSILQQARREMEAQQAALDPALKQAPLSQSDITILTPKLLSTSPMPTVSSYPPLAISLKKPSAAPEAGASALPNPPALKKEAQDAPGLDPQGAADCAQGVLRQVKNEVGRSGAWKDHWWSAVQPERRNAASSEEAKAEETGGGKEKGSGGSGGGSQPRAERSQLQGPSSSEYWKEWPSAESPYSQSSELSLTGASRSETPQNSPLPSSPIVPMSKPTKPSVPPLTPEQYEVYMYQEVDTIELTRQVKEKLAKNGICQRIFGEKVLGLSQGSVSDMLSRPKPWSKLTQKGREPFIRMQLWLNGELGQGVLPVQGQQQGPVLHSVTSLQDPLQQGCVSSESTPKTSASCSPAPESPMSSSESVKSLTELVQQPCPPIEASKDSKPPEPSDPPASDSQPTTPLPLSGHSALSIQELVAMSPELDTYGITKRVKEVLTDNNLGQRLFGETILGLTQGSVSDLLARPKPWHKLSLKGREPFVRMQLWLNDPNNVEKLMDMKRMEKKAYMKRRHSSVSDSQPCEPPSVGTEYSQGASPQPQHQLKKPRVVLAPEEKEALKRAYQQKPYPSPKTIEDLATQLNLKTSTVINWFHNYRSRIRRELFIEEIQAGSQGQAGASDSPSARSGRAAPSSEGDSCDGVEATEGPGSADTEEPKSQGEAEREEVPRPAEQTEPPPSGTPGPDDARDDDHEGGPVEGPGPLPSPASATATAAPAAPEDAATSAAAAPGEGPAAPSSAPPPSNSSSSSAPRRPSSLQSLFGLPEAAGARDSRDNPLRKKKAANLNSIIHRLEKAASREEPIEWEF
UniProt Q8TEB1, whole entry, looked up: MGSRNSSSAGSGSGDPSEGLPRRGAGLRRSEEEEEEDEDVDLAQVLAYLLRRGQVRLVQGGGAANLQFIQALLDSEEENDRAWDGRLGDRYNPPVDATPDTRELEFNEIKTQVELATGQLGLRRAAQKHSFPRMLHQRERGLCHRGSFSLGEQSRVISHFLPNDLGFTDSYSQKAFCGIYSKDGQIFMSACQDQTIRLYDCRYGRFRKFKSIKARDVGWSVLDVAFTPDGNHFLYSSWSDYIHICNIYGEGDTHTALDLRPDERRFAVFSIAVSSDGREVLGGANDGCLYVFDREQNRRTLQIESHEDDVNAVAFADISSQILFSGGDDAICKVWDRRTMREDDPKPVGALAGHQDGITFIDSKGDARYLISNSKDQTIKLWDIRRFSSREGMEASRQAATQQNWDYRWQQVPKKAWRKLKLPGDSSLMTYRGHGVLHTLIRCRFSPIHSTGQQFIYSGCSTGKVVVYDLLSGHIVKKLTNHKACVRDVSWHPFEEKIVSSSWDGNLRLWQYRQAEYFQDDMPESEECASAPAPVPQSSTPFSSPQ
UniProt Q13617, whole entry, looked up: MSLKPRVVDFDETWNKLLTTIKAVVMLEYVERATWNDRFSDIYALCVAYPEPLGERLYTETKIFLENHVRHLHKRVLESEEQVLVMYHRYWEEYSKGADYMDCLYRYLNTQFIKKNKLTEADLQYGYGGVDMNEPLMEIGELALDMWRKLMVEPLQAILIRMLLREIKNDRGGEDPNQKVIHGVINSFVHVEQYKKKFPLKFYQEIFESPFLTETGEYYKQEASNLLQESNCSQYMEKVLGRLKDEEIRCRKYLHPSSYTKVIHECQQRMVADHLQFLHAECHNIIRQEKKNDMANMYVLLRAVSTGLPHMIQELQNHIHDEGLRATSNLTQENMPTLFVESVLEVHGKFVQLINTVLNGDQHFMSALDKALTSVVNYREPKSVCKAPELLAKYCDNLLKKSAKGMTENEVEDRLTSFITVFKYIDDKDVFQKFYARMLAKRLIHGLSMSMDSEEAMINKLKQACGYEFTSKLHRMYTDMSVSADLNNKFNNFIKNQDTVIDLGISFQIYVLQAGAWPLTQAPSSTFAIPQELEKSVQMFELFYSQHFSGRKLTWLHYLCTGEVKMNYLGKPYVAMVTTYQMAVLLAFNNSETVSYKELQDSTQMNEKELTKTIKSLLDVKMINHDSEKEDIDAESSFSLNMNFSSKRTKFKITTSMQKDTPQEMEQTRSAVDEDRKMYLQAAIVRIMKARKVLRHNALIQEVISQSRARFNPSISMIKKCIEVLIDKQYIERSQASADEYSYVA
UniProt P26232: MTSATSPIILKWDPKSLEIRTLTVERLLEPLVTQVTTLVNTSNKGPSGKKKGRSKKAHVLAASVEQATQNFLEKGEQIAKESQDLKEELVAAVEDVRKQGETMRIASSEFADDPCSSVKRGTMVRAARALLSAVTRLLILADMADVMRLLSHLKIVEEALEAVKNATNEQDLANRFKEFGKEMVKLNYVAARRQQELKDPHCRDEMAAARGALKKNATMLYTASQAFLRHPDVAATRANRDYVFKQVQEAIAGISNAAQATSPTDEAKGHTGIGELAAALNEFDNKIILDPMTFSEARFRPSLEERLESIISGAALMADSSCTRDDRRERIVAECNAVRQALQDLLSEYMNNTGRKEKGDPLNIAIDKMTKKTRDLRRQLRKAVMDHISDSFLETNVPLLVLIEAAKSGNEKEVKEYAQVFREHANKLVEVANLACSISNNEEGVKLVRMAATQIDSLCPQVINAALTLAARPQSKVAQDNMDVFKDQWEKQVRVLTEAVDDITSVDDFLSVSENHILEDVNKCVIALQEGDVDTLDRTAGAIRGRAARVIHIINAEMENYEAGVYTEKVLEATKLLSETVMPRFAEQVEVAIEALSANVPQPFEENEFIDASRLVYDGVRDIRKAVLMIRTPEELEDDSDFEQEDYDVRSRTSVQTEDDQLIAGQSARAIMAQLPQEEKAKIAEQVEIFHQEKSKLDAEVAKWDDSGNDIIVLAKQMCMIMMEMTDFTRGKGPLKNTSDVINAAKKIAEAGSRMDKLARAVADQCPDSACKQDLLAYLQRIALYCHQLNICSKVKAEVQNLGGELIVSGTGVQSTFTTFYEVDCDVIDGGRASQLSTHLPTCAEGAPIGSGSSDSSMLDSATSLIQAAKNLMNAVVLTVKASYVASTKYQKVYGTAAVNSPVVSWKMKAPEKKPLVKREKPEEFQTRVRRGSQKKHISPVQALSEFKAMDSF
UniProt P13498: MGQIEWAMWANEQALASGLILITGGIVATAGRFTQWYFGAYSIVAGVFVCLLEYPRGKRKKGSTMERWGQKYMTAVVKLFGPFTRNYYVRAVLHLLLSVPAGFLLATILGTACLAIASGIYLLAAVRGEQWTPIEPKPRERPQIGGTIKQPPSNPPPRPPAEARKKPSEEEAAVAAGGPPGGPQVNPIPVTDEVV
UniProt Q96F07, whole entry, looked up: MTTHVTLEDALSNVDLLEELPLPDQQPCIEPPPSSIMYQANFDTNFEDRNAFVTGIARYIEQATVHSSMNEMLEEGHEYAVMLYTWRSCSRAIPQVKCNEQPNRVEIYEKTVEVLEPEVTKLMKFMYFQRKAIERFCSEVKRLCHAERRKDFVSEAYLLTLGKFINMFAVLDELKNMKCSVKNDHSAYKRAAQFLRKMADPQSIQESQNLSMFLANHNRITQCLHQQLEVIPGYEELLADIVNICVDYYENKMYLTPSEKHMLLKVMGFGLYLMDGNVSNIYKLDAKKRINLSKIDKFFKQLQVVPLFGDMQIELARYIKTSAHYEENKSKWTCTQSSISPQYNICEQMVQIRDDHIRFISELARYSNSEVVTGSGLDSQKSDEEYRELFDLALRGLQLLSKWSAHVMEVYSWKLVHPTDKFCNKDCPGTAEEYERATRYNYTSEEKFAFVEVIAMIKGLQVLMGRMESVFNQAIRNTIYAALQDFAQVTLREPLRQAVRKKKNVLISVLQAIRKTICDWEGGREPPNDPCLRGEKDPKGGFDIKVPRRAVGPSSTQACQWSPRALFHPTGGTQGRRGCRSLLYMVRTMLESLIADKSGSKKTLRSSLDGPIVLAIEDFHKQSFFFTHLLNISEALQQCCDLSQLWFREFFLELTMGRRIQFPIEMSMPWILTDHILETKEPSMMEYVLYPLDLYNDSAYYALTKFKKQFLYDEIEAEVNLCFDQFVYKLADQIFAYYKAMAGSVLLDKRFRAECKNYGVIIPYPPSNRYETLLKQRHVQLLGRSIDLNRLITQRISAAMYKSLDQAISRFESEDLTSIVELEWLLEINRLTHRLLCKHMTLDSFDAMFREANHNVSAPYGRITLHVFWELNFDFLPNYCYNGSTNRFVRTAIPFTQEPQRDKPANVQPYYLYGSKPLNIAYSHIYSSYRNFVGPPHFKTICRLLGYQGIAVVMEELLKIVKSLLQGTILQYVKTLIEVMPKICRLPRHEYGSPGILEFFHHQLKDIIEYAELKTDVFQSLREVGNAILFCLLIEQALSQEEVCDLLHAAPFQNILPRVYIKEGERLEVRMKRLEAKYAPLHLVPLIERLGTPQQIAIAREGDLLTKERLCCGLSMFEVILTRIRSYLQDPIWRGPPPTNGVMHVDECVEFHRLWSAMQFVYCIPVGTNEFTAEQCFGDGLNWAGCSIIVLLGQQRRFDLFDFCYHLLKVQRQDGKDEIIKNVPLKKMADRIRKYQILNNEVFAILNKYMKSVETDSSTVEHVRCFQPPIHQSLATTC
UniProt O60888: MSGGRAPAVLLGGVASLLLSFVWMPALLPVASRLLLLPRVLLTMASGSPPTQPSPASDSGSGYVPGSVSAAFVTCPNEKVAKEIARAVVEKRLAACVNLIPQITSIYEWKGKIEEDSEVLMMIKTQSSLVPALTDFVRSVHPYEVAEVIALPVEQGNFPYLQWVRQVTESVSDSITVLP

Assays:
Experiment in all cases: log2 fold change, soluble protein after heating vs DMSO (PISA); higher = thermal stabilisation; K562 cells, 10 uM, 30 min; active = over 0.2 and 3.5 SD of the protein, either way, in both replicates (recomputed)
IRAK-1-4 Inhibitor I = compound: C1COCCN1CCN2C3=CC=CC=C3N=C2NC(=O)C4=CC(=CC=C4)[N+](=O)[O-] [IRAK-1-4 Inhibitor I]
Procedure, shortened: (§1)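 K562 cells at 2×10^6 cells/mL were treated with 10 μM compound for 30 min. Aliquots were heated for 3 min across 48°C-58°C, pooled, and extracted in PBS with 0.5% NP-40 at 4°C; soluble protein was the supernatant after 21,000xg for 90 min. Soluble protein was quantified by TMTpro 16plex LC-MS/MS with channel sums equalised, and reported as log2 fold change in thermal stability against DMSO controls, with values from duplicates.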

ibrutinib = compound: C=CC(=O)N1CCC[C@@H](n2nc(-c3ccc(Oc4ccccc4)cc3)c3c(N)ncnc32)C1 [ibrutinib]
Procedure, shortened: as §1

[1] = compound: CC(=O)c1cnc2ccc(-c3cc(Cl)c(O)c(Cl)c3)nc2c1N[C@H]1CC[C@H](CN(C)C)CC1
Procedure, shortened: as §1

ralimetinib = compound: CC(C)(C)Cn1c(N)nc2ccc(-c3[nH]c(C(C)(C)C)nc3-c3ccc(F)cc3)nc21 [ralimetinib]
Procedure, shortened: as §1

[2] = compound: CC(C)(O)CC(=O)NCCn1ccc2ncnc(Nc3ccc(Oc4cccc(C(F)(F)F)c4)c(Cl)c3)c21
Procedure, shortened: as §1

[3] = compound: CC(C)C1=C2N=C(C=C(N2N=C1)NCC3=CC=CC=C3)NCCCCCCN
Procedure, shortened: as §1

[4] = compound: CC(C)C[C@@H](C=O)NC(=O)[C@H](CC(C)C)NC(=O)[C@H](CC(C)C)NC(=O)OCc1ccccc1
Procedure, shortened: as §1

pinometostat = compound: CC(C)N(C[C@H]1O[C@@H](n2cnc3c(N)ncnc32)[C@H](O)[C@@H]1O)[C@H]1C[C@@H](CCc2nc3cc(C(C)(C)C)ccc3[nH]2)C1 [pinometostat]
Procedure, shortened: as §1

[5] = compound: CC1=C(C(CC(=O)N1)C2=CC=C(C=C2)C(F)(F)F)C(=O)NC3=C(C=C4C(=C3)C=NN4)F
Procedure, shortened: as §1

[6] = compound: CC1=C(C2=C(C=C1)C(=O)C3=CC=CC=C3N2CCCN)C
Procedure, shortened: as §1

[7] = compound: CC1=C(C=C(C=C1)NC(=O)C2=CC(=CC=C2)C(C)(C)C#N)NC3=CC4=C(C=C3)N=CN(C4=O)C
Procedure, shortened: as §1

[8] = compound: CC1=C(C=C(C=C1)NC(=O)C2=CC(=CC=C2)N(C)C)NC(=O)C3=CC=C(C=C3)O
Procedure, shortened: as §1

[9] = compound: CC1=CC=C(C=C1)SC2=C3C=C(SC3=CN=C2)C(=O)N
Procedure, shortened: as §1

[10] = compound: CC1=NC(=CC=C1)C2=C(N=C(N2)C(C)(C)C)C3=CC4=NC=CN=C4C=C3
Procedure, shortened: as §1

Nexturastat A = compound: CCCCN(Cc1ccc(C(=O)NO)cc1)C(=O)Nc1ccccc1 [Nexturastat A]
Procedure, shortened: as §1

vemurafenib = compound: CCCS(=O)(=O)Nc1ccc(F)c(C(=O)c2c[nH]c3ncc(-c4ccc(Cl)cc4)cc23)c1F [vemurafenib]
Procedure, shortened: as §1

[11] = compound: CCCS(=O)(=O)Nc1ccc(F)c(C(=O)c2c[nH]c3ncc(Cl)cc23)c1F
Procedure, shortened: as §1

[12] = compound: CCCc1cc(C)[nH]c(=O)c1CNC(=O)c1cc(-c2ccnc(N3CCN(C)CC3)c2)cc2c1cnn2C(C)C
Procedure, shortened: as §1

givinostat = compound: CCN(CC)Cc1ccc2cc(COC(=O)Nc3ccc(C(=O)NO)cc3)ccc2c1 [givinostat]
Procedure, shortened: as §1

barasertib = compound: CCN(CCCOc1ccc2c(Nc3cc(CC(=O)Nc4cccc(F)c4)[nH]n3)ncnc2c1)CCOP(=O)(O)O [barasertib]
Procedure, shortened: as §1

Target | log2 fold change (IRAK-1-4 Inhibitor I) | log2 fold change (ibrutinib) | log2 fold change [1] | log2 fold change (ralimetinib) | log2 fold change [2] | log2 fold change [3] | log2 fold change [4] | log2 fold change (pinometostat) | log2 fold change [5] | log2 fold change [6] | log2 fold change [7] | log2 fold change [8] | log2 fold change [9] | log2 fold change [10] | log2 fold change (Nexturastat A) | log2 fold change (vemurafenib) | log2 fold change [11] | log2 fold change [12] | log2 fold change (givinostat) | log2 fold change (barasertib)
CUL5 (UniProt Q93034) | inactive: 0.017 | inactive: -0.002 | inactive: -0.013 | inactive: -0.037 | inactive: -0.054 | inactive: 0.054 | inactive: -0.018 | inactive: -0.05 | inactive: 0.003 | inactive: 0.007 | inactive: -0.005 | inactive: 0 | inactive: 0.017 | inactive: -0.007 | inactive: -0.089 | inactive: -0.008 | inactive: 0.008 | inactive: -0.025 | inactive: 0.002 | inactive: -0.004
CYB5R4 (UniProt Q7L1T6) | inactive: 0.033 | inactive: -0.037 | inactive: -0.011 | inactive: -0.037 | inactive: 0.019 | inactive: -0.023 | inactive: -0.025 | inactive: -0.012 | inactive: -0.011 | inactive: 0.029 | inactive: -0.014 | inactive: -0.006 | inactive: -0.002 | inactive: 0.006 | inactive: -0.047 | inactive: 0.04 | inactive: -0.008 | inactive: -0.074 | inactive: 0.017 | inactive: -0.001
DAP3 (UniProt P51398) | inactive: -0.071 | inactive: 0.065 | inactive: 0.007 | inactive: 0.009 | inactive: -0.054 | inactive: -0.044 | inactive: 0.075 | inactive: 0.028 | inactive: 0.023 | inactive: -0.144 | inactive: -0.002 | inactive: -0.027 | inactive: 0.016 | inactive: -0.022 | inactive: 0.128 | inactive: 0.007 | inactive: 0.041 | inactive: 0.02 | inactive: 0.084 | inactive: -0.054
CYB5R3 isoform 3 (UniProt P00387) | inactive: 0.016 | inactive: 0.011 | inactive: -0.014 | inactive: -0.07 | inactive: 0.007 | inactive: 0.035 | inactive: -0.008 | inactive: -0.009 | inactive: 0.018 | inactive: -0.008 | inactive: -0.012 | inactive: -0.003 | inactive: -0.001 | inactive: 0.015 | inactive: -0.047 | inactive: -0.038 | inactive: -0.026 | inactive: -0.021 | inactive: 0.003 | inactive: -0.019
CUX1 isoform 2 (UniProt Q13948) | inactive: 0.042 | inactive: 0.017 | inactive: -0.032 | inactive: 0.036 | inactive: -0.101 | inactive: 0.045 | inactive: 0.042 | inactive: 0.055 | – | inactive: 0.049 | inactive: -0.07 | inactive: 0.007 | inactive: -0.003 | inactive: -0.031 | inactive: 0.051 | inactive: 0.074 | inactive: 0.077 | inactive: -0.011 | inactive: -0.049 | inactive: 0.038
CUX1 isoform 3 (UniProt P39880) | inactive: 0.019 | inactive: -0.033 | inactive: -0.032 | inactive: -0.065 | inactive: -0.047 | inactive: 0.008 | inactive: 0.116 | inactive: -0.018 | – | inactive: 0.153 | inactive: -0.039 | inactive: 0.016 | inactive: 0 | inactive: -0.001 | inactive: -0.013 | inactive: 0.043 | inactive: 0.025 | inactive: 0.065 | inactive: 0.002 | inactive: 0.013
DCAF11 (UniProt Q8TEB1) | inactive: 0.011 | inactive: 0.047 | inactive: 0.036 | inactive: -0.025 | inactive: -0.071 | inactive: -0.004 | inactive: -0.04 | inactive: -0.017 | inactive: -0.028 | inactive: -0.05 | inactive: 0.01 | inactive: 0.01 | inactive: 0.001 | inactive: 0.007 | inactive: -0.106 | inactive: 0.006 | inactive: -0.018 | inactive: -0.023 | inactive: 0.041 | inactive: -0.009
CUL2 isoform 2 (UniProt Q13617) | inactive: 0.061 | inactive: 0.011 | inactive: 0.007 | inactive: -0.013 | inactive: -0.055 | inactive: -0.011 | inactive: -0.022 | inactive: -0.023 | inactive: -0.019 | inactive: 0.053 | inactive: 0.006 | inactive: -0.001 | inactive: 0.064 | inactive: 0.058 | inactive: -0.048 | inactive: 0.011 | inactive: 0.056 | inactive: -0.051 | inactive: -0.053 | inactive: -0.013
CTNNA2 (UniProt P26232) | inactive: 0 | inactive: -0.014 | inactive: -0.004 | inactive: -0.041 | inactive: -0.088 | inactive: 0.02 | inactive: 0.015 | inactive: 0.001 | inactive: -0.02 | inactive: -0.027 | inactive: 0.029 | inactive: 0.04 | inactive: 0.095 | inactive: 0.031 | inactive: 0.016 | inactive: -0.001 | inactive: -0.004 | inactive: 0.083 | inactive: 0.014 | inactive: 0.024
CYBA (UniProt P13498) | inactive: 0.044 | inactive: 0.024 | inactive: -0.024 | inactive: -0.041 | inactive: -0.152 | active: -0.43 | inactive: 0.121 | inactive: -0.036 | – | inactive: -0.026 | inactive: -0.017 | inactive: 0.025 | inactive: 0.041 | inactive: -0.02 | inactive: -0.033 | inactive: 0 | inactive: 0.008 | inactive: -0.028 | inactive: 0.007 | inactive: -0.033
CYB5R2 (UniProt Q6BCY4) | inactive: -0.009 | inactive: -0.009 | inactive: 0.005 | inactive: -0.027 | inactive: 0.046 | inactive: 0.089 | inactive: 0.015 | inactive: -0.031 | inactive: 0.004 | inactive: 0.014 | inactive: -0.036 | inactive: 0.038 | inactive: -0.021 | inactive: -0.003 | inactive: -0.049 | inactive: -0.008 | inactive: -0.06 | inactive: -0.004 | inactive: -0.019 | inactive: 0
CXorf38 (UniProt Q8TB03) | inactive: 0.027 | inactive: -0.037 | inactive: -0.037 | inactive: -0.044 | inactive: -0.053 | inactive: -0.01 | inactive: 0.012 | inactive: 0.008 | inactive: -0.008 | inactive: 0.024 | inactive: 0.037 | inactive: -0.055 | inactive: -0.018 | inactive: -0.045 | inactive: 0.001 | inactive: -0.008 | inactive: 0.011 | inactive: 0.009 | inactive: -0.091 | inactive: 0.036
CYFIP2 (UniProt Q96F07) | inactive: 0 | inactive: 0.019 | inactive: -0.097 | inactive: 0.035 | inactive: -0.014 | inactive: -0.044 | inactive: 0.037 | inactive: -0.002 | inactive: 0.03 | inactive: -0.017 | inactive: 0.005 | inactive: -0.022 | inactive: -0.048 | inactive: 0.029 | inactive: -0.058 | inactive: 0.04 | inactive: -0.018 | inactive: -0.003 | inactive: -0.004 | inactive: 0.013
CUTA isoform 2 (UniProt O60888) | inactive: 0.074 | inactive: -0.018 | inactive: 0.085 | inactive: -0.046 | inactive: -0.104 | inactive: 0.038 | inactive: -0.09 | inactive: -0.009 | – | inactive: 0.15 | inactive: -0.121 | inactive: -0.011 | inactive: 0.013 | inactive: 0.044 | inactive: 0.169 | inactive: 0 | inactive: 0.044 | inactive: 0.16 | inactive: -0.044 | inactive: 0.015
DAG1 (UniProt Q14118) | inactive: -0.019 | inactive: -0.024 | inactive: -0.029 | inactive: -0.076 | inactive: 0.003 | inactive: 0.169 | inactive: 0.008 | inactive: 0.04 | – | inactive: 0.067 | inactive: -0.053 | inactive: -0.019 | inactive: -0.013 | inactive: 0.001 | inactive: -0.005 | inactive: 0.005 | inactive: -0.06 | inactive: -0.028 | inactive: 0.019 | inactive: 0.011
CYFIP1 (UniProt Q7L576) | inactive: -0.001 | inactive: -0.019 | inactive: -0.07 | inactive: -0.013 | inactive: -0.056 | inactive: -0.042 | inactive: -0.013 | inactive: 0.001 | – | inactive: 0.026 | inactive: 0.012 | inactive: 0.005 | inactive: 0.017 | inactive: 0.035 | inactive: -0.043 | inactive: 0.026 | inactive: 0.019 | inactive: 0.006 | inactive: -0.005 | inactive: 0.038

Rewritten tab-delimited: entries from further up.
Target	log2 fold change (IRAK-1-4 Inhibitor I)	log2 fold change (ibrutinib)	log2 fold change [1]	log2 fold change (ralimetinib)	log2 fold change [2]	log2 fold change [3]	log2 fold change [4]	log2 fold change (pinometostat)	log2 fold change [5]	log2 fold change [6]	log2 fold change [7]	log2 fold change [8]	log2 fold change [9]	log2 fold change [10]	log2 fold change (Nexturastat A)	log2 fold change (vemurafenib)	log2 fold change [11]	log2 fold change [12]	log2 fold change (givinostat)	log2 fold change (barasertib)
CYB5R4 (UniProt Q7L1T6)	inactive: 0.033	inactive: -0.037	inactive: -0.011	inactive: -0.037	inactive: 0.019	inactive: -0.023	inactive: -0.025	inactive: -0.012	inactive: -0.011	inactive: 0.029	inactive: -0.014	inactive: -0.006	inactive: -0.002	inactive: 0.006	inactive: -0.047	inactive: 0.04	inactive: -0.008	inactive: -0.074	inactive: 0.017	inactive: -0.001
CTNNA2 (UniProt P26232)	inactive: 0	inactive: -0.014	inactive: -0.004	inactive: -0.041	inactive: -0.088	inactive: 0.02	inactive: 0.015	inactive: 0.001	inactive: -0.02	inactive: -0.027	inactive: 0.029	inactive: 0.04	inactive: 0.095	inactive: 0.031	inactive: 0.016	inactive: -0.001	inactive: -0.004	inactive: 0.083	inactive: 0.014	inactive: 0.024
